In paper PMC11006408:
These are yes or no findings as the source states them, for the method shown. In cells and extracts the contact can be indirect. Some binding calls cover weakened binding; strength is not graded here. Tags and fused reporters may be left off the sequences shown.

T1: human Fuzzy-FLAG (human) (UniProt Q9BT04)
T1 sequence: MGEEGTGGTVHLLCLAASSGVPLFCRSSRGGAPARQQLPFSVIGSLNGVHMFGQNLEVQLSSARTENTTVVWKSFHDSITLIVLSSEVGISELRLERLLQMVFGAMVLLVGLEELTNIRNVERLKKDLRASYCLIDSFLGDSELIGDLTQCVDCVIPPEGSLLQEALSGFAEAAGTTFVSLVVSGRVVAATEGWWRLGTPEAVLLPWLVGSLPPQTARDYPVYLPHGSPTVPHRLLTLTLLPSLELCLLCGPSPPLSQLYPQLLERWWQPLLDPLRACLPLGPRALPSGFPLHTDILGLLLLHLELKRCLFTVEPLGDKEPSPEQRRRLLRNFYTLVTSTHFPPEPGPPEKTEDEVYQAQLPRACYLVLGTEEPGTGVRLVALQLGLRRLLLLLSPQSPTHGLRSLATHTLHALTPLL

T2: human GFP-p190A (human) (UniProt Q9NRY4)
T2 sequence: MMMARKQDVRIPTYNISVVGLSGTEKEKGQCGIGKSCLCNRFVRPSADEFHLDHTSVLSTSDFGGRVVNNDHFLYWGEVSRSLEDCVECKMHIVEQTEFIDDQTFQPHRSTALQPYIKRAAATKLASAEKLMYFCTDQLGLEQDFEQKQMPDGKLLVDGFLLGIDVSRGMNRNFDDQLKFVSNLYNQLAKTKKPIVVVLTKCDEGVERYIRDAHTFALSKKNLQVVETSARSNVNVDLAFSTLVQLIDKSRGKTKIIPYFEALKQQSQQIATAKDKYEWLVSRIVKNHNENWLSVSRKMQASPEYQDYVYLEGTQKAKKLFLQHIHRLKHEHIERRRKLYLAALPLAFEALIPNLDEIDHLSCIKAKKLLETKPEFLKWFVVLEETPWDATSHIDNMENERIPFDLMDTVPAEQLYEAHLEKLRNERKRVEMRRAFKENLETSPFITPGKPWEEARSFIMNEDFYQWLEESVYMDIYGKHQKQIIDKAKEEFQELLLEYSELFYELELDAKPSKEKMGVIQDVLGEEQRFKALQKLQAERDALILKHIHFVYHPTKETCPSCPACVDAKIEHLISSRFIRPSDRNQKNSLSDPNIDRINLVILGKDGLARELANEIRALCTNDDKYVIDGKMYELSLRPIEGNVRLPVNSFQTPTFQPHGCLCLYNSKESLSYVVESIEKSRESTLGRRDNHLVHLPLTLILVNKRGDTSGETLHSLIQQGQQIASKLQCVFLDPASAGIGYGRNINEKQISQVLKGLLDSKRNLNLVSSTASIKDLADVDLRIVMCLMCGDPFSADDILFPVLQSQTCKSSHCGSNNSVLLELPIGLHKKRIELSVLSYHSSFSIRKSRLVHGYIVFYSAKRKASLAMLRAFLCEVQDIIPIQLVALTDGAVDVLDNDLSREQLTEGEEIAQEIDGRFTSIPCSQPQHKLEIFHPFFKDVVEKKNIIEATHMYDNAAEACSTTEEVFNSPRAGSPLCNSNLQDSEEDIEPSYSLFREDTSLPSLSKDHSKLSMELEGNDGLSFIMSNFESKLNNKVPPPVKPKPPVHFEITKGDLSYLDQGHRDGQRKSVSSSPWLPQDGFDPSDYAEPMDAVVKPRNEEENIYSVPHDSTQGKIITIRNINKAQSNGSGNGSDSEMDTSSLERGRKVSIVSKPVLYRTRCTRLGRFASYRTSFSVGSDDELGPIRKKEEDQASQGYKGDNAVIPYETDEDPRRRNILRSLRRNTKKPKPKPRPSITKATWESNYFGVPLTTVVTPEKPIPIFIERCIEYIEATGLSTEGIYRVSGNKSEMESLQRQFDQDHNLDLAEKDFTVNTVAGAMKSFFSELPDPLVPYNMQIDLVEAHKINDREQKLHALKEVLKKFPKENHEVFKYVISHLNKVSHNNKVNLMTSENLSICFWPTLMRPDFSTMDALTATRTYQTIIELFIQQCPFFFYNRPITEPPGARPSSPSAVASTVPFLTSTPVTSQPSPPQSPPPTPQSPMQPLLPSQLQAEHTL

B1: human GFP-p190A (protein, UniProt Q9NRY4 1-1499)
chain: T2 sequence
B2: human Fuzzy-FLAG (protein, UniProt Q9BT04 1-418)
chain: T1 sequence

Legend:
[1] = target: T1, human Fuzzy-FLAG (human); assay: co-IP; HEK293T cells co-transfected with Fuzzy-Flag and p190A-GFP cDNA; lysis in 50 mM HEPES pH 7.5, 150 mM NaCl, 0.5% Triton X-100; lysate incubated overnight at 4°C with anti-p190A RhoGAP or anti-FLAG antibody, protein A/G or protein A agarose; washes with 200 mM and 500 mM NaCl; western blot with anti-FLAG or anti-p190A
[2] = target: T2, human GFP-p190A (human); assay: as above

Binder | binding [1] | binding [2]
B1 | binds | –
B2 | – | binds
